Further values from the same series stand in other lists.
System: revascularization, unstable angina requiring hospitalization, MI, all causes of death, or stroke
Experiment: PROVE IT-TIMI 22: SNP by treatment interaction (high-dose atorvastatin vs standard-dose pravastatin), logistic regression (synergy index), primary composite endpoint
Type: in vivo, human

## CC(C)c1c(C(=O)Nc2ccccc2)c(-c2ccccc2)c(-c2ccc(F)cc2)n1CC[C@@H](O)C[C@@H](O)CC(=O)O [Atorvastatin, atorvastatin]
rs11749272 allele T, DOM, Imputed, atorvastatin vs pravastatin
  OR: 0.593
rs11853619 allele C, REC, Imputed, atorvastatin vs pravastatin
  OR: 1.946
rs11856780 allele A, REC, Imputed, atorvastatin vs pravastatin
  OR: 1.946
rs11901899 allele A DOM Imputed
  OR: 1.452
rs11901899 allele A, DOM, Imputed, atorvastatin vs pravastatin
  OR: 1.452
rs11903290 allele C, REC, Imputed, atorvastatin vs pravastatin
  OR: 2.698
rs11909480 allele G, ADD, Imputed, atorvastatin vs pravastatin
  OR: 0.4305
rs11909480 allele G, DOM, Imputed, atorvastatin vs pravastatin
  OR: 0.3714
rs11910289 allele T, ADD, Imputed, atorvastatin vs pravastatin
  OR: 1.815
rs11910289 allele T, DOM, Imputed, atorvastatin vs pravastatin
  OR: 1.911
rs11926319 allele G ADD Imputed
  OR: 0.9777
rs11926319 allele G DOM Imputed
  OR: 1.007
rs11926319 allele G, DOM, Imputed, atorvastatin vs pravastatin
  OR: 1.007
rs11933744 allele T, REC, Imputed, atorvastatin vs pravastatin
  OR: 0.8701
rs11934919 allele C, REC, Imputed, atorvastatin vs pravastatin
  OR: 0.8636
rs11934957 allele C, REC, Imputed, atorvastatin vs pravastatin
  OR: 0.8636
rs11956952 allele C DOM Imputed
  OR: 0.6491
rs11959206 allele A, REC, Imputed, atorvastatin vs pravastatin
  OR: 1.201
rs12025826 allele G DOM Imputed
  OR: 1.459
rs12038613 allele C, REC, Imputed, atorvastatin vs pravastatin
  OR: 0.8998
rs12151417 allele T, DOM, Imputed, atorvastatin vs pravastatin
  OR: 1.517
rs12153185 allele T DOM Imputed
  OR: 0.5728
rs12153185 allele T, DOM, Imputed, atorvastatin vs pravastatin
  OR: 0.5728
rs12182651 allele T ADD Imputed
  OR: 0.982
rs12182651 allele T DOM Imputed
  OR: 0.9744
rs12182651 allele T, DOM, Imputed, atorvastatin vs pravastatin
  OR: 0.9744
rs12193568 allele G DOM Imputed
  OR: 1.618
rs12235345 allele C, DOM, Imputed, atorvastatin vs pravastatin
  OR: 1.768
rs12264914 allele C DOM Imputed
  OR: 0.4742
rs12307767 allele C DOM Imputed
  OR: 0.6033
rs12324786 allele T, REC, Imputed, atorvastatin vs pravastatin
  OR: 2.198
rs12336958 allele G, DOM, Imputed, atorvastatin vs pravastatin
  OR: 0.7989
rs12407412 allele C ADD Imputed
  OR: 1.439
rs12407412 allele C DOM Imputed
  OR: 1.57
rs12407412 allele C, ADD, Imputed, atorvastatin vs pravastatin
  OR: 1.439
rs12407412 allele C, DOM, Imputed, atorvastatin vs pravastatin
  OR: 1.57
rs12418971 allele C, REC, Imputed, atorvastatin vs pravastatin
  OR: 3.381
rs12420184 allele G DOM Imputed
  OR: 1.429
rs12420184 allele G, DOM, Imputed, atorvastatin vs pravastatin
  OR: 1.429
rs12422750 allele A DOM Imputed
  OR: 0.5888
rs12433968 allele T, DOM, Imputed, atorvastatin vs pravastatin
  OR: 1.059
rs12445477 allele A, DOM, Imputed, atorvastatin vs pravastatin
  OR: 0.7231
rs12446951 allele A ADD Imputed
  OR: 1.549
rs12446951 allele A DOM Imputed
  OR: 1.63
rs12447191 allele T, ADD, Genotyped, atorvastatin vs pravastatin
  OR: 0.7641
rs12447191 allele T, DOM, Genotyped, atorvastatin vs pravastatin
  OR: 0.6902
rs12457400 allele G DOM Imputed
  OR: 0.578
rs12465349 allele A, REC, Imputed, atorvastatin vs pravastatin
  OR: 1.865
rs12515472 allele A, DOM, Imputed, atorvastatin vs pravastatin
  OR: 1.913
rs12521291 allele G ADD Imputed
  OR: 1.07
rs12526849 allele T ADD Imputed
  OR: 1.012
rs12548906 allele G, ADD, Imputed, atorvastatin vs pravastatin
  OR: 1.763
rs12596240 allele G, DOM, Imputed, atorvastatin vs pravastatin
  OR: 0.9009
rs12618781 allele A, DOM, Imputed, atorvastatin vs pravastatin
  OR: 1.082
rs12678600 allele A DOM Imputed
  OR: 0.7992
rs12678600 allele A, DOM, Imputed, atorvastatin vs pravastatin
  OR: 0.7992
rs12692229 allele T, ADD, Imputed, atorvastatin vs pravastatin
  OR: 1.608
rs12713324 allele T, DOM, Imputed, atorvastatin vs pravastatin
  OR: 1.501
rs12719415 allele T DOM Imputed
  OR: 0.5934
rs12719415 allele T, DOM, Imputed, atorvastatin vs pravastatin
  OR: 0.5934
rs12820589 allele G, ADD, Imputed, atorvastatin vs pravastatin
  OR: 0.882
rs12820589 allele G, DOM, Imputed, atorvastatin vs pravastatin
  OR: 0.926
rs12831292 allele G DOM Imputed
  OR: 0.7047
rs12831292 allele G, ADD, Imputed, atorvastatin vs pravastatin
  OR: 0.7739
rs12831292 allele G, DOM, Imputed, atorvastatin vs pravastatin
  OR: 0.7047
rs12923993 allele C DOM Imputed
  OR: 2.011
rs12936964 allele T DOM Imputed
  OR: 1.123
rs12960663 allele G ADD Imputed
  OR: 0.797
rs13012636 allele G, REC, Imputed, atorvastatin vs pravastatin
  OR: 2.717
rs13038146 allele C ADD Imputed
  OR: 1.389
rs13038146 allele C, ADD, Imputed, atorvastatin vs pravastatin
  OR: 1.389
rs13038146 allele C, REC, Imputed, atorvastatin vs pravastatin
  OR: 2.069
rs13089860 allele A, DOM, Imputed, atorvastatin vs pravastatin
  OR: 0.5987
rs13102419 allele T, REC, Imputed, atorvastatin vs pravastatin
  OR: 1.104
rs13172910 allele A DOM Imputed
  OR: 0.6398
rs13194907 allele A ADD Imputed
  OR: 1.091
rs13194907 allele A, ADD, Imputed, atorvastatin vs pravastatin
  OR: 1.091
rs13195745 allele A ADD Imputed
  OR: 1.091
rs13195745 allele A, ADD, Imputed, atorvastatin vs pravastatin
  OR: 1.091
rs13265054 allele T DOM Imputed
  OR: 0.7541
rs13265054 allele T, DOM, Imputed, atorvastatin vs pravastatin
  OR: 0.7541
rs13282131 allele C, ADD, Imputed, atorvastatin vs pravastatin
  OR: 1.295
rs13282131 allele C, REC, Imputed, atorvastatin vs pravastatin
  OR: 1.884
rs13353526 allele C DOM Imputed
  OR: 0.8239
rs13387284 allele A, DOM, Imputed, atorvastatin vs pravastatin
  OR: 1.094
rs13401462 allele C, DOM, Imputed, atorvastatin vs pravastatin
  OR: 0.8697
rs13409045 allele T, ADD, Imputed, atorvastatin vs pravastatin
  OR: 1.009
rs16877387 allele C REC Imputed
  OR: 1.186
rs16938626, allele G, DOM, Imputed, PROVE-IT, vs pravastatin
  OR: 0.7689
rs16938626 allele G DOM Imputed
  OR: 0.7689
rs16964300, allele G, ADD, Imputed, PROVE-IT, vs pravastatin
  OR: 0.7656
rs16964300, allele G, DOM, Imputed, PROVE-IT, vs pravastatin
  OR: 0.6717
rs16986282, allele G, DOM, Imputed, PROVE-IT, vs pravastatin
  OR: 0.3565
rs16998821 allele C DOM Imputed
  OR: 1.138
rs17007620, allele G, ADD, Imputed, PROVE-IT, vs pravastatin
  OR: 1.033
rs17007620, allele G, DOM, Imputed, PROVE-IT, vs pravastatin
  OR: 1.127
rs17007620 allele G ADD Imputed
  OR: 1.033
rs17007620 allele G DOM Imputed
  OR: 1.127
rs17014326, allele G, DOM, Imputed, PROVE-IT, vs pravastatin
  OR: 1.215
rs17023290 allele C DOM Imputed
  OR: 0.8286
rs17047957, allele C, DOM, Imputed, PROVE-IT, vs pravastatin
  OR: 1.801
rs17047957 allele C DOM Imputed
  OR: 1.801
rs17073341, allele A, ADD, Imputed, PROVE-IT, vs pravastatin
  OR: 2.051
rs17073341, allele A, DOM, Imputed, PROVE-IT, vs pravastatin
  OR: 2.316
rs17076972 allele C (A1), REC, Imputed, atorvastatin vs pravastatin
  OR: 0.9776
rs17076972 allele C ADD Imputed
  OR: 1.031
rs17138702, allele G, ADD, Imputed, PROVE-IT, vs pravastatin
  OR: 1.127
rs17189710, allele T, ADD, Imputed, PROVE-IT, vs pravastatin
  OR: 1.382
rs17189710, allele T, REC, Imputed, PROVE-IT, vs pravastatin
  OR: 2.127
rs17189710 allele T (A1), ADD, Imputed, atorvastatin vs pravastatin
  OR: 1.382
rs17196143 allele A (A1), ADD, Imputed, atorvastatin vs pravastatin
  OR: 0.7066
rs17310176, allele T, ADD, Imputed, PROVE-IT, vs pravastatin
  OR: 0.6446
rs17310176, allele T, DOM, Imputed, PROVE-IT, vs pravastatin
  OR: 0.6022
rs17353809 allele G (A1), ADD, Imputed, atorvastatin vs pravastatin
  OR: 0.9859
rs17358860, allele A, DOM, Imputed, PROVE-IT, vs pravastatin
  OR: 0.5513
rs17370541, allele T, REC, Imputed, PROVE-IT, vs pravastatin
  OR: 1.119
rs17446418 allele G (A1), DOM, Imputed, atorvastatin vs pravastatin
  OR: 1.044
rs17530747, allele T, DOM, Imputed, PROVE-IT, vs pravastatin
  OR: 1.033
rs17530747 allele T (A1), DOM, Imputed, atorvastatin vs pravastatin
  OR: 1.033
rs17604285 allele C (A1), ADD, Imputed, atorvastatin vs pravastatin
  OR: 0.9476
rs17604285 allele C (A1), DOM, Imputed, atorvastatin vs pravastatin
  OR: 0.9476
rs17649114, allele C, DOM, Imputed, PROVE-IT, vs pravastatin
  OR: 1.776
rs17662322 allele T (A1), DOM, Imputed, atorvastatin vs pravastatin
  OR: 0.7561
rs17766172, allele A, REC, Imputed, PROVE-IT, vs pravastatin
  OR: 0.5776
rs17769826 allele T (A1), ADD, Imputed, atorvastatin vs pravastatin
  OR: 0.9859
rs17821641 allele T (A1), ADD, Imputed, atorvastatin vs pravastatin
  OR: 1.021
rs72746987, allele A, DOM, Genotyped, atorvastatin vs pravastatin
  OR: 1.033
rs77638540, allele T, DOM, Genotyped, atorvastatin vs pravastatin
  OR: 0.3879

Source: patent publication US10563263B2, “Genetic polymorphisms associated with statin response and cardiovascular diseases, methods of detection and uses thereof” (CELERA CORPORATION, priority 2010, dated 2020)
